Reference: doi:10.1101/714154
Results are given in words; binding and its absence hold for the method and conditions named. Some results given as binding are weak or reduced against the parent protein; the word gives no strength.

Target: T1, human alpha-N-acetylgalactosaminidase (nagalase) (human) (UniProt P17050)
T1 sequence: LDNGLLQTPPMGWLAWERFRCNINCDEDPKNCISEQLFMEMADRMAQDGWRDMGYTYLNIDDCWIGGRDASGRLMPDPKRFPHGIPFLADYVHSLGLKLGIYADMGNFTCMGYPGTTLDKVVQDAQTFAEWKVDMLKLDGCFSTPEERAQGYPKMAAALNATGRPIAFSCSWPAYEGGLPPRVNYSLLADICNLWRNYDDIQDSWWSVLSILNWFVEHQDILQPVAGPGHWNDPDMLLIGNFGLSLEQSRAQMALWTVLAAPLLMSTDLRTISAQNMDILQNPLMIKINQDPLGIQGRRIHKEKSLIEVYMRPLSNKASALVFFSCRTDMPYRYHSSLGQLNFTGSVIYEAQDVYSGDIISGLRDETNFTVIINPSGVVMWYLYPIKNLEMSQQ
Assay: ELISA

B1: vitamin D-binding protein-derived macrophage activating factor (DBP-MAF), purified (protein, UniProt P02774 17-474)
chain: LERGRDYEKNKVCKEFSHLGKEDFTSLSLVLYSRKFPSGTFEQVSQLVKEVVSLTEACCAEGADPDCYDTRTSALSAKSCESNSPFPVHPGTAECCTKEGLERKLCMAALKHQPQEFPTYVEPTNDEICEAFRKDPKEYANQFMWEYSTNYGQAPLSLLVSYTKSYLSMVGSCCTSASPTVCFLKERLQLKHLSLLTTLSNRVCSQYAAYGEKKSRLSNLIKLAQKVPTADLEDVLPLAEDITNILSKCCESASEDCMAKELPEHTVKLCDNLSTKNSKFEDCCQEKTAMDVFVCTYFMPAAQLPELPDVELPTNKDVCDPGNTKVMDKYTFELSRRTHLPEVFLSKVLEPTLKSLGECCDVEDSTTCFNAKGPLLKKELSSFIDKGQELCADYSENTFTEYKKKLAERLKAKLPDATPTELAKLVNKHSDFASNCCSINSPPLYCDSEIDAELKNIL
  binding: binds
